Reference: article PMC3983220
Construct, isoform or probe ends are uncertain for at least one entry. Where a protein sequence is shown, tags need not be part of it.

Biological target: T1, D146A ΔhPus1p (Homo sapiens) (UniProt Q9Y606)
T1 sequence (looked up): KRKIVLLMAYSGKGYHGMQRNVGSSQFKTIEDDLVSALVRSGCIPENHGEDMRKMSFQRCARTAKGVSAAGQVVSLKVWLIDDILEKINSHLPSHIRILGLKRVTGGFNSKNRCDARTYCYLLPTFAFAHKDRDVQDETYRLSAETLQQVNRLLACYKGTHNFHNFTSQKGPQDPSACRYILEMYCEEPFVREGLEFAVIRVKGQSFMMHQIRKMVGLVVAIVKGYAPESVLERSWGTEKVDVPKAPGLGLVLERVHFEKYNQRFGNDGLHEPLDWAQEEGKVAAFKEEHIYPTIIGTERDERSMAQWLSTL
Experiment: fluorescence anisotropy
Details: n=1; 5-fluorouridine at U206-equivalent position (index in oligo not given); 10 mM HEPES pH 7.0, 150 mM NaCl, 5 mM MgCl2, 5 mM TCEP, 20°C; RNA fixed at 1 µM; recombinant protein; residues 83-394; protein details: N-terminal 9xHis, TEV-cleaved; label: 5'-fluorescein; letters put together from the description

Sequence “GCCCCAAUGGGGCCUCCACCUCCUUCAAGUAAGGCUCCCAGGUCCCCACCUGUGGG [H7 SRA FL]” has a Kd of 2.2 µM.
